# Results: the supplement of paper PMC11732987, “Enantioselective OTUD7B fragment discovery through chemoproteomics screening and high-throughput optimisation” (Communications Chemistry, 2025)
# The chains behind the UniProt entries cited, without tags or fusion partners. Where a name states a change or a piece, a line headed by the entry shows the natural chain unless it says otherwise. Residues count along the entry.
# UniProt Q9BVQ7, 694-715: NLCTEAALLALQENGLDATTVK
# UniProt Q9Y5M8: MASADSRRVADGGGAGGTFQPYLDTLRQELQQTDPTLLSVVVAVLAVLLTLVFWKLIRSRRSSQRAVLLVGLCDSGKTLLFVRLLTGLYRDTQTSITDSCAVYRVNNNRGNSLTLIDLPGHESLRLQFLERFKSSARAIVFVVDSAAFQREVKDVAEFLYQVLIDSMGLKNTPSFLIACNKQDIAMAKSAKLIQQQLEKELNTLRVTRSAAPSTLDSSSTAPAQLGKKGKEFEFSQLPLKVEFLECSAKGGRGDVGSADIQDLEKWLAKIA
# UniProt O60506: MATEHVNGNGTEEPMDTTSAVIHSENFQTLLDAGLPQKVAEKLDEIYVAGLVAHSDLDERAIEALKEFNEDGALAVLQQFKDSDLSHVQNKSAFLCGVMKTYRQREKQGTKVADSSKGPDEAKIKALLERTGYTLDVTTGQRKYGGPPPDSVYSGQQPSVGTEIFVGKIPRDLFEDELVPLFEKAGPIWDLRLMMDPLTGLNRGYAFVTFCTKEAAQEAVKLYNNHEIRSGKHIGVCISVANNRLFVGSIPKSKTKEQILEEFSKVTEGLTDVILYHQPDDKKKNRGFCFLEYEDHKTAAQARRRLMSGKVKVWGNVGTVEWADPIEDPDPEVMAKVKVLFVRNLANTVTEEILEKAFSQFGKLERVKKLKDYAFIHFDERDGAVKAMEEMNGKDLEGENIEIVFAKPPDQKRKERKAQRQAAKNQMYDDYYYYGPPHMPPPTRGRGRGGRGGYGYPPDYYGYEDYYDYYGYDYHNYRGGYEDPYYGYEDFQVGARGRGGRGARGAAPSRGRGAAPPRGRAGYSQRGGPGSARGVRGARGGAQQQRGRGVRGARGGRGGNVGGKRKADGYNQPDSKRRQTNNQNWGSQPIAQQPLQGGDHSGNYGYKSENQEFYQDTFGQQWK
# UniProt Q9Y3F4: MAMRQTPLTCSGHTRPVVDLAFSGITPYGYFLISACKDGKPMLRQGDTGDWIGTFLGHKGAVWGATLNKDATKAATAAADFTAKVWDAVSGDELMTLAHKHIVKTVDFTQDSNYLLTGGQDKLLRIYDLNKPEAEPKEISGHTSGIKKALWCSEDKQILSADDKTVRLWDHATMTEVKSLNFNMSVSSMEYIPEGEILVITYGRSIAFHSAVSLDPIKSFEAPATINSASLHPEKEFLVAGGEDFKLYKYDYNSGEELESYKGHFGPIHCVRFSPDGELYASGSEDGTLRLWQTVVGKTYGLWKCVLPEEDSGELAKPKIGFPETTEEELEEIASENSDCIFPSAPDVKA
# UniProt Q08945: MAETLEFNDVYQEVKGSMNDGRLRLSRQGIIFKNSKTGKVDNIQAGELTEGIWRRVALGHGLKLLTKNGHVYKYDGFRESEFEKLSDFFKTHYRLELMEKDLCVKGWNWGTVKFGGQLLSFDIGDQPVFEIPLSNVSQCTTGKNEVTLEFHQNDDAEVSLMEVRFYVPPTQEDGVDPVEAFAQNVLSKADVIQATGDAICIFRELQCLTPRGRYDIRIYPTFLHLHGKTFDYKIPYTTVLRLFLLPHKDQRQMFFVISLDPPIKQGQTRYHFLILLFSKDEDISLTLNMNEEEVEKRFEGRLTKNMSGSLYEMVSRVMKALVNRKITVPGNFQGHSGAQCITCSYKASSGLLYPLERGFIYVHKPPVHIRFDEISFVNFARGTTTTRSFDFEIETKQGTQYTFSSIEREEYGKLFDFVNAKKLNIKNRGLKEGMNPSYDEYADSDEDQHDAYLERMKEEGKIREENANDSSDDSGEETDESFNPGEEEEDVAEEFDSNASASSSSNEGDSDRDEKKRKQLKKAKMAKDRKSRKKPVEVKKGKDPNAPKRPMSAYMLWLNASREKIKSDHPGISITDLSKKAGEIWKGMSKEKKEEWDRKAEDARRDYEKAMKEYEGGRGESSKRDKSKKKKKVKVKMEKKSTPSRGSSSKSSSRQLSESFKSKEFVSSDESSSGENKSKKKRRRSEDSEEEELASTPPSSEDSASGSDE
# UniProt Q8TCT8, 492-520: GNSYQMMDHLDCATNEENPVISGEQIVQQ
# UniProt Q8N5C6, 142-166: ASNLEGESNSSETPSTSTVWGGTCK
# UniProt Q96JI7: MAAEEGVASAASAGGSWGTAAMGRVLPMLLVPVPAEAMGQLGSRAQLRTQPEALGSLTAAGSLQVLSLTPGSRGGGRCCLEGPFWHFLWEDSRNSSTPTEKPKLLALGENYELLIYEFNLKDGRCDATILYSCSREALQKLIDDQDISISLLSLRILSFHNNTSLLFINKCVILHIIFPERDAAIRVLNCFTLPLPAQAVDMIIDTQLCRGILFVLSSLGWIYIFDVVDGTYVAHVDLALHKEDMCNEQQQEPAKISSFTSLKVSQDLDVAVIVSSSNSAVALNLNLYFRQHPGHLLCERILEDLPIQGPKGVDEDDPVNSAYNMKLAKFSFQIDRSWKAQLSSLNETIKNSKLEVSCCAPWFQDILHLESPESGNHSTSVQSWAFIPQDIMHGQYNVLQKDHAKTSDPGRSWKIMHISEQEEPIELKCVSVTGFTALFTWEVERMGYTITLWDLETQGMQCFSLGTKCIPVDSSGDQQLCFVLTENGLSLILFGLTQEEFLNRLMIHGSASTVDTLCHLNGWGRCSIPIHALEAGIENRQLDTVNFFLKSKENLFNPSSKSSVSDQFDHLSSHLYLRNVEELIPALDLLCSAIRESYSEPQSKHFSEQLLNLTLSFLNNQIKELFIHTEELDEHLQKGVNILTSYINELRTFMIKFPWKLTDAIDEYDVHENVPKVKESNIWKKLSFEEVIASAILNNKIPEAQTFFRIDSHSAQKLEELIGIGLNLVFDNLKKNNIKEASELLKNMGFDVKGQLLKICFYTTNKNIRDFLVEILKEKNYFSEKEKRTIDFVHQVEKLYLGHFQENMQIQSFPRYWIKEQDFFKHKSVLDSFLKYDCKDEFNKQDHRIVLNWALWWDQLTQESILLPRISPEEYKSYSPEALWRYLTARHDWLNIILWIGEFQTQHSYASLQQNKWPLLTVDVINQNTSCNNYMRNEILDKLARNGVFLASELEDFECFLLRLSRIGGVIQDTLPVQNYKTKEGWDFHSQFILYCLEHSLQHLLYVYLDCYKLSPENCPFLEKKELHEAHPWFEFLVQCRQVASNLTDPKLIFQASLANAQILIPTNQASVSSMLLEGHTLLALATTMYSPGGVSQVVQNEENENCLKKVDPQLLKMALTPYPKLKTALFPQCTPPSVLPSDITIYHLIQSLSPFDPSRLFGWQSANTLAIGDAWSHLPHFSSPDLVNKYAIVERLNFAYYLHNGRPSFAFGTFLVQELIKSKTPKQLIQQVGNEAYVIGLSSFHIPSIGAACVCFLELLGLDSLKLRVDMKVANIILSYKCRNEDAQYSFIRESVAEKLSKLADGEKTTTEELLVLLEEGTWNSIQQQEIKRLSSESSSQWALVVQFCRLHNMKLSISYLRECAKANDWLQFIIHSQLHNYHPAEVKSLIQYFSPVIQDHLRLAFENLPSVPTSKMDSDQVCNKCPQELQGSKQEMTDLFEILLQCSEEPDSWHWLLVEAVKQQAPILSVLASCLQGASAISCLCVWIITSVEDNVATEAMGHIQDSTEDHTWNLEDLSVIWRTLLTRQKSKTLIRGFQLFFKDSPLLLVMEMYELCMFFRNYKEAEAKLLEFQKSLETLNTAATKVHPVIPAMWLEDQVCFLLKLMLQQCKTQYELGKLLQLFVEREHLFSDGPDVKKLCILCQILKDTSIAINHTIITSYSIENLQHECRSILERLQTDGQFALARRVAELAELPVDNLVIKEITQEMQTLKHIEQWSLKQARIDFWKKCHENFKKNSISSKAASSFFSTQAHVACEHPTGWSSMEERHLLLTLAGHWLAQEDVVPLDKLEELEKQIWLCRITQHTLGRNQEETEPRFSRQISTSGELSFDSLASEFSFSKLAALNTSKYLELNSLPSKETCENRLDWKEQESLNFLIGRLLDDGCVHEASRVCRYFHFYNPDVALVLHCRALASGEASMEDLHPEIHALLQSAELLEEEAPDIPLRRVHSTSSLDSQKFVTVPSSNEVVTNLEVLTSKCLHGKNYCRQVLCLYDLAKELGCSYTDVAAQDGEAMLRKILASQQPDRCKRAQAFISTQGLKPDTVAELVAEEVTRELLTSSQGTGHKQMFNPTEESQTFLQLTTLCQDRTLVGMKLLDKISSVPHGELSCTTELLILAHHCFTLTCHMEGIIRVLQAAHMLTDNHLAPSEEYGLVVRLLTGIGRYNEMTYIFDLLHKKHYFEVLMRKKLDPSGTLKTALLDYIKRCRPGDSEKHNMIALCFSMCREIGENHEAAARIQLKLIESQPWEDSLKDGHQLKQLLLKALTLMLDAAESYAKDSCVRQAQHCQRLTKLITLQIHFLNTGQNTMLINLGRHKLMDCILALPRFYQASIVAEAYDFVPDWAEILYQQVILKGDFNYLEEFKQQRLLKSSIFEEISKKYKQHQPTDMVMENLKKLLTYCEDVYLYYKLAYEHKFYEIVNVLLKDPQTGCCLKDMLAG
# UniProt P40763: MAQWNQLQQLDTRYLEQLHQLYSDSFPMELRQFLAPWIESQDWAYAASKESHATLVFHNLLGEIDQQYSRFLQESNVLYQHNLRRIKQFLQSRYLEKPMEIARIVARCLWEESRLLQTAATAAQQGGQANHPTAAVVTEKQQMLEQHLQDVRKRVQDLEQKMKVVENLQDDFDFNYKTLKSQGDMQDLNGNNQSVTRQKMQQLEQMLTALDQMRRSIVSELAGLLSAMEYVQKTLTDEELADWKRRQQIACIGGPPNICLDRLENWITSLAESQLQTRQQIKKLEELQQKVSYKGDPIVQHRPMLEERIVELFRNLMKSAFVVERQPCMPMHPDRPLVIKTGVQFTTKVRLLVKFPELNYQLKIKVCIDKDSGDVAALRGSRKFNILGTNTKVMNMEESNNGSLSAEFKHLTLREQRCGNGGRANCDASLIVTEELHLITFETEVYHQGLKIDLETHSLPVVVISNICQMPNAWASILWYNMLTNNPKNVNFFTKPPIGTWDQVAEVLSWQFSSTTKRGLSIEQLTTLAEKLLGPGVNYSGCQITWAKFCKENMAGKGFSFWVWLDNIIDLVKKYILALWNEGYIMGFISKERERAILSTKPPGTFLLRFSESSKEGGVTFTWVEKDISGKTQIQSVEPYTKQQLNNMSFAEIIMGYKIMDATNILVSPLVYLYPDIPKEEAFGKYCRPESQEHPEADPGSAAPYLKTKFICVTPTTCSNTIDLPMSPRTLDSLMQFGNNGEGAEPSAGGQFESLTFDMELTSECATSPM
# UniProt P19623, 114-135: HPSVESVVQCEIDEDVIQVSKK
# UniProt Q12772: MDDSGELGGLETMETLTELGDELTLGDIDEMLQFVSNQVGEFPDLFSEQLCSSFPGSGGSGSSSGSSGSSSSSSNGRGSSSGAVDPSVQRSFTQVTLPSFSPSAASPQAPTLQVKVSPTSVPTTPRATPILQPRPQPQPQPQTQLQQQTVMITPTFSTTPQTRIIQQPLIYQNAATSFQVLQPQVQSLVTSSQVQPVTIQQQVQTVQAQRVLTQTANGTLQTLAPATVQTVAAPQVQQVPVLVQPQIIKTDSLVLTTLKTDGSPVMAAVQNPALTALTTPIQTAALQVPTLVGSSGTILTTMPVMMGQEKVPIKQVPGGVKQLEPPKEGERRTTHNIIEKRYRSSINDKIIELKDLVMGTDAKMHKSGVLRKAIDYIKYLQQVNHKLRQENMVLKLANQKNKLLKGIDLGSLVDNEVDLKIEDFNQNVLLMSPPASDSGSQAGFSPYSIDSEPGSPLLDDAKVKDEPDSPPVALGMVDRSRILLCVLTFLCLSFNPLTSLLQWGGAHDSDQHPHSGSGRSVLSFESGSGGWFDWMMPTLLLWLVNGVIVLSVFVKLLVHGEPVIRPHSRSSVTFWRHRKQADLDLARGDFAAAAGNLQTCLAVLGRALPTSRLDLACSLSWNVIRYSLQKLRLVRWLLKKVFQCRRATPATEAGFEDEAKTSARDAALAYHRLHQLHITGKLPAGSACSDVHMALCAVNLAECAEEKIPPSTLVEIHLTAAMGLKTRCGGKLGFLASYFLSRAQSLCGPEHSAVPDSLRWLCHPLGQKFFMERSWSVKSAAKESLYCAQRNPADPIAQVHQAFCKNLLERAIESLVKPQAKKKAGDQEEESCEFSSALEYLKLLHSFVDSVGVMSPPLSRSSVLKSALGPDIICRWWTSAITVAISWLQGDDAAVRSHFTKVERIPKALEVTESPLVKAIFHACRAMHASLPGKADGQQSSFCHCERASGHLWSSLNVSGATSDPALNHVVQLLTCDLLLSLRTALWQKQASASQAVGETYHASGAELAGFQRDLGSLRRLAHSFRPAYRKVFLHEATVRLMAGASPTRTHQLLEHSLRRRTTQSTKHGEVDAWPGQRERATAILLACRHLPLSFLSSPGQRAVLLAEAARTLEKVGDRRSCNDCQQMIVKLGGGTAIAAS
# The list shows a part of the results. The data scatter; read single values as rough.
# Key:
# [1] = compound: ClCC(=O)N[C@@H]1CCCc2ccccc12; assay: log2 mean competition ratio of IA-DTB cysteine labelling (DMSO/compound) (log2 ratio); higher = stronger cysteine engagement by compound; settings: treatment time: 4 h, cell line lysate: HEK293T
# Procedure: (§1)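 IA-DTB competitive cysteine chemoproteomics in HEK293T RIPA lysate. Lysates were treated with compound 29 or 30 at 50 or 200 µM for 4 h, then IA-DTB (500 µM, 1 h), trypsin-digested, NeutrAvidin-enriched and analysed by diaPASEF. Competition ratio = intensity DMSO / intensity compound (n=4 treated, n=64 DMSO); binding: mean log2 CR ≥ 1 and p ≤ 0.05 plus QC filters. Target is the cysteine site.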
# [2] = compound: ClCC(=O)N[C@H]1CCCc2ccccc12; assay: as above; settings: treatment time: 4 h, cell line lysate: HEK293T
# Procedure: as §1
Target,log2 mean competition ratio ([1]; 50 µM),log2 mean competition ratio ([1]; 200 µM),log2 mean competition ratio ([2]; 50 µM),log2 mean competition ratio ([2]; 200 µM)
SPATA5L1 C696 (UniProt Q9BVQ7),-0.124,-0.23,-0.118,-0.384
SRPRB C100 (UniProt Q9Y5M8),-0.238,-0.314,0.0722,-0.225
SYNCRIP C289 (UniProt O60506),-0.156,0.085,0.0302,0.0248
SYNE3 C51,-0.304,-0.202,-0.254,-0.0599
SSH2 C1054 (UniProt Q76I76),-0.111,-0.0631,-0.126,0.029
STAG1 C636 (UniProt Q8WVM7),-0.189,0.0471,-0.376,-0.0725
STRAP C152 (UniProt Q9Y3F4),-0.276,-0.149,-0.0419,0.0487
SRPRB C179 (UniProt Q9Y5M8),,,0.456,0.233
SSRP1 C200 (UniProt Q08945),,,-0.175,-0.0273
SPPL2A C503 (UniProt Q8TCT8),,,,-0.489
SYNE2 C6161 (UniProt Q8WXH0),0.145,-0.218,0.072,-0.241
SRBD1 C912 (UniProt Q8N5C6),,,-0.148,-0.372
STXBP3 C557 (UniProt O00186),,,-0.214,-0.113
SUPT20H C48 (UniProt Q8NEM7),,,-0.31,-0.128
SPOUT1 C239 (UniProt Q5T280),,,-0.151,0.149
SRSF9 C80 (UniProt Q13242),,,-0.0151,0.213
SRBD1 C502 (UniProt Q8N5C6),0.17,0.225,0.266,0.379
SUGP2 C970 (UniProt Q8IX01),,,0.00119,0.204
SRP54 C36 (UniProt P61011),-0.0498,-0.211,-0.163,-0.0736
SPG11 C1019 (UniProt Q96JI7),,-0.755,-0.577,-0.187
STAT3 C367 (UniProt P40763),-0.346,-0.31,-0.595,-0.351
SRBD1 C165 (UniProt Q8N5C6),-0.238,-0.0866,0.618,0.0489
SPTBN2 C2030 (UniProt O15020),0.531,-0.137,-0.167,-0.11
SRM C123 (UniProt P19623),,,-0.516,-0.649
SREBF2 C832 (UniProt Q12772),,,-0.373,0.549

# Rewritten tab-delimited: part of the list above
Target	log2 mean competition ratio ([1]; 50 µM)	log2 mean competition ratio ([1]; 200 µM)	log2 mean competition ratio ([2]; 50 µM)	log2 mean competition ratio ([2]; 200 µM)
SSH2 C1054 (UniProt Q76I76)	-0.111	-0.0631	-0.126	0.029
SPTBN2 C2030 (UniProt O15020)	0.531	-0.137	-0.167	-0.11
